Measured data: PubChem BioAssay AID686938 (Drosophila RNAi Screening Center, 2013)
The deposit covers about 23,000 reagents; below is an unselected part of those that have a named target and a result. In the full data, 75 (0.33%) got an active call. 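Raw plate signals without normalisation; calls rest on plate z-scores that were not deposited; ratio present for only 364 wells.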 Unmarked entries are inactive. A plus sign joins genes that one reagent is predicted to hit. The record does not give: the dose of the treatment.

- Aim: 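Knock-downs reducing store-operated calcium influx in Drosophila cells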 (primary screen)
- Cells: Drosophila S2R+ cells
- Reagent: long dsRNA against Drosophila genes, about 0.25 µg dsRNA per well, roughly 10,000 cells
- Duration: 5 days of knock-down before the calcium assay
- Treatment: thapsigargin (SERCA pump blocker) to empty calcium stores; entry signal taken 4 min after adding it
- Read-out: 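Per-well fluo-4 fluorescence in two replicates, unnormalised, measured in resting cells and 4 min after store depletion by the SERCA blocker thapsigargin; ratio of the two present in few wells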
- Reading the numbers: calcium entry signal: higher = stronger calcium signal after store depletion; entry to resting ratio: higher = more calcium entry relative to resting level; resting calcium signal: higher = higher resting calcium signal
- Rule for the call: 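Called when the plate z-score of the entry-to-rest ratio, mean of duplicates, falls below −3; wells with low overall dye signal (Fmax z below −2) or more than five off-targets excluded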
- Calls: active = strongly reduced calcium entry; inactive = no strong reduction

The first 3 entries, to show the layout:
gene knocked down,amplicon,"calcium entry signal, replicate 1 (fluorescence units)","calcium entry signal, replicate 2 (fluorescence units)",entry to resting ratio,"resting calcium signal, replicate 1 (fluorescence units)","resting calcium signal, replicate 2 (fluorescence units)"
rictor (GeneID 32919),DRSC20071,5.06e7,5.32e7,,2.62e7,2.43e7
snRNA:U4atac (GeneID 12798231),DRSC12055,2.09e7,3.19e7,,1.04e7,1.47e7
ND-B22 (GeneID 34747),DRSC03193,3.22e7,2.13e7,,1.66e7,1.12e7

The list itself, from the first entry:
gene knocked down,amplicon,"calcium entry signal, replicate 1 (fluorescence units)","calcium entry signal, replicate 2 (fluorescence units)",entry to resting ratio,"resting calcium signal, replicate 1 (fluorescence units)","resting calcium signal, replicate 2 (fluorescence units)"
rictor (GeneID 32919),DRSC20071,5.06e7,5.32e7,,2.62e7,2.43e7
snRNA:U4atac (GeneID 12798231),DRSC12055,2.09e7,3.19e7,,1.04e7,1.47e7
ND-B22 (GeneID 34747),DRSC03193,3.22e7,2.13e7,,1.66e7,1.12e7
CG17776 (GeneID 50373),DRSC18136,3.81e7,6.25e7,2,1.93e7,2.46e7
snRNA:U1:95Cc + CG43285 (retired record),DRSC13640,2.63e7,3.57e7,,1.48e7,1.91e7
CG13700 (GeneID 40013),DRSC10049,3.07e7,5.78e7,,1.60e7,2.20e7
CG14007 (GeneID 33799),DRSC02339,2.95e7,2.70e7,,1.45e7,1.36e7
CG42854 (GeneID 10178809),DRSC19173,3.14e7,3.88e7,,1.46e7,1.58e7
CG3618 (GeneID 40303),DRSC11746,4.56e7,5.01e7,,2.06e7,3.52e7
nonA (GeneID 32603),DRSC20357,2.46e7,1.98e7,,1.30e7,1.11e7
CG30196 (GeneID 37595),DRSC04156,3.14e7,4.39e7,,1.71e7,2.04e7
CG7573 (GeneID 39272),DRSC10884,2.84e7,4.92e7,,1.50e7,2.18e7
CG14563 (GeneID 40435),DRSC11724,3.46e7,6.39e7,,1.62e7,2.31e7
CG14570 (GeneID 40416),DRSC11731,2.98e7,5.19e7,,1.45e7,2.13e7
CG14135 (GeneID 39316),DRSC10140,2.27e7,3.85e7,,1.18e7,1.74e7
CG42676 (GeneID 2768999),DRSC08227,4.47e7,3.68e7,,2.07e7,2.01e7
CG42676 (GeneID 2768999),DRSC08392,4.19e7,3.63e7,,2.03e7,1.77e7
CG34174 (GeneID 5740699),DRSC00101,1.86e7,2.35e7,,1.05e7,1.16e7
CG6282 (GeneID 38985),DRSC10616,5.21e7,3.18e7,,3.26e7,1.42e7
CG13171 (GeneID 36323),DRSC06299,2.77e7,3.77e7,,1.42e7,1.66e7
CG30031 + deltaTry + gammaTry,DRSC07622,3.74e7,3.26e7,,1.73e7,1.56e7
Ass + CG31286,DRSC12493,4.49e7,3.00e7,,2.21e7,1.50e7
Eig71Ed (GeneID 39704),DRSC11151,4.30e7,3.53e7,,1.90e7,1.59e7
CG15725 (GeneID 32224),DRSC19691,3.85e7,5.38e7,,1.86e7,2.36e7
CG14573 (GeneID 40419),DRSC11734,3.49e7,5.24e7,,1.61e7,2.19e7
CG9992 (GeneID 32605),DRSC20226,4.14e7,4.21e7,,1.82e7,2.13e7
CG9992 (GeneID 32605),DRSC21643,3.06e7,3.54e7,,1.76e7,1.73e7
Or67d (GeneID 39191),DRSC10158,1.65e7,3.07e7,,1.02e7,1.27e7
Alp8 (GeneID 37540),DRSC04353,4.18e7,4.82e7,,2.08e7,2.28e7
CG32214 (GeneID 317919),DRSC09613,3.82e7,4.01e7,,1.94e7,1.78e7
shtd (GeneID 32473),DRSC20166,2.38e7,2.69e7,,1.39e7,1.58e7
CG32647 (GeneID 326226),DRSC19690,3.23e7,4.07e7,,1.58e7,1.92e7
CG32647 (GeneID 326226),DRSC19878,1.64e7,2.28e7,,9.77e6,1.25e7
LysS (GeneID 38130),DRSC08677,2.76e7,2.76e7,,1.42e7,1.29e7
CG43134 (GeneID 12798107),DRSC17318,4.78e7,3.53e7,,2.36e7,1.54e7
CG3308 (GeneID 42527),DRSC15474,5.07e7,3.94e7,,2.16e7,1.68e7
Alms1b + Alms1a,DRSC18559,3.76e7,3.83e7,,1.80e7,1.86e7
GluRIA (GeneID 38742),DRSC11176,3.13e7,4.37e7,,1.36e7,1.72e7
Exd2 (GeneID 41374),DRSC16105,3.34e7,3.54e7,,1.59e7,1.81e7
CG44000 + CG33995 + CG44001,DRSC00853,3.36e7,4.03e7,,1.88e7,1.84e7
CG44000 + CG33995 + CG44001,DRSC02898,4.17e7,,,1.69e7,
